Results: the supplement of paper PMC12823440, “Inhibitors supercharge kinase turnover through native proteolytic circuits” (Nature, 2025)
Where a name gives a salt, the structure may show the parent alone. Some of the results follow. The calls rarely recur for the same compound in another form.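 In K562 cells expressing nanoluciferase-fused kinases, luminescence was recorded at 4 h intervals between 2 and 18 h, normalized as percent of control with DMSO at 100% and a positive control at 0%. A significant (2 sigma) signal drop marks a time point as decreased. The authors' rule for a hit is not shown and takes in more than the number of time points.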

By UniProt entry, the sequences of proteins in these tests, tags left out. Where a name states a change or a piece, a line headed by the entry shows the natural chain unless it says otherwise.
UniProt P36888, whole entry: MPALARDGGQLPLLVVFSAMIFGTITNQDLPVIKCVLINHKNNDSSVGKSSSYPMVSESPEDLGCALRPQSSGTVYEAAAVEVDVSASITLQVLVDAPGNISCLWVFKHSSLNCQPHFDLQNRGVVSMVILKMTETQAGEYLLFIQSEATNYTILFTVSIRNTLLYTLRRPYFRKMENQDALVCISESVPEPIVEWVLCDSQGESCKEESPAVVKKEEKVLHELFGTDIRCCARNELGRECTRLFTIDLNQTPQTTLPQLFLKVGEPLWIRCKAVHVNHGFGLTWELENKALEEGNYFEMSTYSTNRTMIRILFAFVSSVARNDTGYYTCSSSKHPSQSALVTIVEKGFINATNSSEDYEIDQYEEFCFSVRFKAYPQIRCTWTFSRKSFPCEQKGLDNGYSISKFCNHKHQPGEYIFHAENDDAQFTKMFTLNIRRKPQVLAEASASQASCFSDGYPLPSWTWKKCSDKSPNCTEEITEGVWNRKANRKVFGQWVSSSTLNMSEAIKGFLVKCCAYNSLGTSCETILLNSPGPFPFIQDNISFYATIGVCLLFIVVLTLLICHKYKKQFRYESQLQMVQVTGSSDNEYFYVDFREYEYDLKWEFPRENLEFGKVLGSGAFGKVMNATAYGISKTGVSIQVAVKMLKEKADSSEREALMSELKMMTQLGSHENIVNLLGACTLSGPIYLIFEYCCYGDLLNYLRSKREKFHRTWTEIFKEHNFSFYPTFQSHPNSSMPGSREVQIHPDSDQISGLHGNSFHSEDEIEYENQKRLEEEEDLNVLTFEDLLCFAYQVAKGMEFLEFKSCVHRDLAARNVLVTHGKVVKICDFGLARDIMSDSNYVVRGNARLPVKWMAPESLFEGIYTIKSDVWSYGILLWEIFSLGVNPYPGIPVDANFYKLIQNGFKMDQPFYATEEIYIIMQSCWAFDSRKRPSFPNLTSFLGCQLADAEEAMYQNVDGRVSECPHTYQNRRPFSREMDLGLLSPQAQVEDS
UniProt P06241, whole entry, looked up: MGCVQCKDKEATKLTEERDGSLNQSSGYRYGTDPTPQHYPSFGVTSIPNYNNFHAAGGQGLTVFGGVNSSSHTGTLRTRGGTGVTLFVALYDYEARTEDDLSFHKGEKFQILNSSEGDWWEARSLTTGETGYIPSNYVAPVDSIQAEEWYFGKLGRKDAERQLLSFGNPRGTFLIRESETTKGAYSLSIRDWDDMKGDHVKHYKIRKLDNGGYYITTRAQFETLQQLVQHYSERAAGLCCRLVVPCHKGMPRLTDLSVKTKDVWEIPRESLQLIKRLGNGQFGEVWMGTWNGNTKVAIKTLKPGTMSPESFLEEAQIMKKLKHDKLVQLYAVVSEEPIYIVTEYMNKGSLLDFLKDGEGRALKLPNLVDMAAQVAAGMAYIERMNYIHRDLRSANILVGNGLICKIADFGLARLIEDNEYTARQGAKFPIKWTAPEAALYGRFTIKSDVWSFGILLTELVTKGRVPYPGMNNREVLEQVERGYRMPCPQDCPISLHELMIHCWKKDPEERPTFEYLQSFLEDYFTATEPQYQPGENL
UniProt P49840: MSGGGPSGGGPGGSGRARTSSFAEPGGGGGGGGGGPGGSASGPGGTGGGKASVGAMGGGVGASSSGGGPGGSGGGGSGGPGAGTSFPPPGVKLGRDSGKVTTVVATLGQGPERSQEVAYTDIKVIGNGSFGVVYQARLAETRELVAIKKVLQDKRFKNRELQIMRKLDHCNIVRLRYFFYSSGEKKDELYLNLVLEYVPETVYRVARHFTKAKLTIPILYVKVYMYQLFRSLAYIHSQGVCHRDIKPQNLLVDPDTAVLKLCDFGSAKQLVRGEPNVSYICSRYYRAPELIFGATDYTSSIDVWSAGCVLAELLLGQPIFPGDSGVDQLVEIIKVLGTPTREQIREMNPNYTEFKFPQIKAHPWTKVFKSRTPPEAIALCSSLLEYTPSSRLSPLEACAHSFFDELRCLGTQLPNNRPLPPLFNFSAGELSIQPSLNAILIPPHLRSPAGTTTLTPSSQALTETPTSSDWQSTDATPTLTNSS
UniProt P14616: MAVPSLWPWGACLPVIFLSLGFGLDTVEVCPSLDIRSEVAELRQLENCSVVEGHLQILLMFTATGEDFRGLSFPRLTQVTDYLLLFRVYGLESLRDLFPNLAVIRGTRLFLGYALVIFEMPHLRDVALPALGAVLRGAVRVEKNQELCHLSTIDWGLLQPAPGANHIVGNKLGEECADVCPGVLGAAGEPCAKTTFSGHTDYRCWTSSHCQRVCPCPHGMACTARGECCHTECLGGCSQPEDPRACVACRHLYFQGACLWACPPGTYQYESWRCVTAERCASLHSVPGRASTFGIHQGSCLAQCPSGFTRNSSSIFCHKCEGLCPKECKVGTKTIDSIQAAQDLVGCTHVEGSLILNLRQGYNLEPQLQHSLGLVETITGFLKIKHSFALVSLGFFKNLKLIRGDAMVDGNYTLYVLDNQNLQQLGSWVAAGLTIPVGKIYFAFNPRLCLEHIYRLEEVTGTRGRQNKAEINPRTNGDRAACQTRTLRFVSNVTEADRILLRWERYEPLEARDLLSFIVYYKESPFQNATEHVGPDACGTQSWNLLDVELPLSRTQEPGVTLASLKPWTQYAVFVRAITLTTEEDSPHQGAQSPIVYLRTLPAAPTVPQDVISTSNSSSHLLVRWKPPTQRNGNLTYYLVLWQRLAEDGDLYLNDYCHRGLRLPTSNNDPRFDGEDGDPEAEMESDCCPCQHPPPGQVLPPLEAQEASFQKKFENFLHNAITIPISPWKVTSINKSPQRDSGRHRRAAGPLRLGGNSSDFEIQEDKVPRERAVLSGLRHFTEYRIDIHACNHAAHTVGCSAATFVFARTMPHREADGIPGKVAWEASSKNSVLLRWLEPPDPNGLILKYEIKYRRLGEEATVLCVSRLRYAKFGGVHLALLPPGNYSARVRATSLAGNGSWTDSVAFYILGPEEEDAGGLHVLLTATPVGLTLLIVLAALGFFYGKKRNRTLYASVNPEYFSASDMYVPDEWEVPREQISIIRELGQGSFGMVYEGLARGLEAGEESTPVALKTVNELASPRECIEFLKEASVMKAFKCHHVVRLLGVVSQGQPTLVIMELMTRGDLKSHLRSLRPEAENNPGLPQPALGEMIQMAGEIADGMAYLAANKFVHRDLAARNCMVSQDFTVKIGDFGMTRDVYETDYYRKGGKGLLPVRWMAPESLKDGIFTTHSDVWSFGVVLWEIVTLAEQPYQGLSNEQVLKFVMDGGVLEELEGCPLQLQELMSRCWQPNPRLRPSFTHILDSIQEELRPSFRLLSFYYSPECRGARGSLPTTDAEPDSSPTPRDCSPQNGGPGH
UniProt Q9Y616: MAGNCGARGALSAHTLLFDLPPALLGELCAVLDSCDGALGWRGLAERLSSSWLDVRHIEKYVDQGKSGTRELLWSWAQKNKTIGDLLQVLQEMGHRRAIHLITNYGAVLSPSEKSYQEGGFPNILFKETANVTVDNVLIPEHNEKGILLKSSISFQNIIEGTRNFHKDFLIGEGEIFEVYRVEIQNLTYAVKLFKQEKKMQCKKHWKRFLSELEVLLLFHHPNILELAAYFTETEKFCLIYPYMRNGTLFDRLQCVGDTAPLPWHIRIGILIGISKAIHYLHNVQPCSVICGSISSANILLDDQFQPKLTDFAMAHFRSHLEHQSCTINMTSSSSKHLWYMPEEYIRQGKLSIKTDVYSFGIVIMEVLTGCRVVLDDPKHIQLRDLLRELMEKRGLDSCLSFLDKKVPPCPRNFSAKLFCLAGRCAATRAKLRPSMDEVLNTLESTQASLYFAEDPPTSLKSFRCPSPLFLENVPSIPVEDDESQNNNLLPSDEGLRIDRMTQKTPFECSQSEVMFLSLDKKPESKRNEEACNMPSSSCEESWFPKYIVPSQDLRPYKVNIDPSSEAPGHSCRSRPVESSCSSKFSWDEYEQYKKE
UniProt P23458: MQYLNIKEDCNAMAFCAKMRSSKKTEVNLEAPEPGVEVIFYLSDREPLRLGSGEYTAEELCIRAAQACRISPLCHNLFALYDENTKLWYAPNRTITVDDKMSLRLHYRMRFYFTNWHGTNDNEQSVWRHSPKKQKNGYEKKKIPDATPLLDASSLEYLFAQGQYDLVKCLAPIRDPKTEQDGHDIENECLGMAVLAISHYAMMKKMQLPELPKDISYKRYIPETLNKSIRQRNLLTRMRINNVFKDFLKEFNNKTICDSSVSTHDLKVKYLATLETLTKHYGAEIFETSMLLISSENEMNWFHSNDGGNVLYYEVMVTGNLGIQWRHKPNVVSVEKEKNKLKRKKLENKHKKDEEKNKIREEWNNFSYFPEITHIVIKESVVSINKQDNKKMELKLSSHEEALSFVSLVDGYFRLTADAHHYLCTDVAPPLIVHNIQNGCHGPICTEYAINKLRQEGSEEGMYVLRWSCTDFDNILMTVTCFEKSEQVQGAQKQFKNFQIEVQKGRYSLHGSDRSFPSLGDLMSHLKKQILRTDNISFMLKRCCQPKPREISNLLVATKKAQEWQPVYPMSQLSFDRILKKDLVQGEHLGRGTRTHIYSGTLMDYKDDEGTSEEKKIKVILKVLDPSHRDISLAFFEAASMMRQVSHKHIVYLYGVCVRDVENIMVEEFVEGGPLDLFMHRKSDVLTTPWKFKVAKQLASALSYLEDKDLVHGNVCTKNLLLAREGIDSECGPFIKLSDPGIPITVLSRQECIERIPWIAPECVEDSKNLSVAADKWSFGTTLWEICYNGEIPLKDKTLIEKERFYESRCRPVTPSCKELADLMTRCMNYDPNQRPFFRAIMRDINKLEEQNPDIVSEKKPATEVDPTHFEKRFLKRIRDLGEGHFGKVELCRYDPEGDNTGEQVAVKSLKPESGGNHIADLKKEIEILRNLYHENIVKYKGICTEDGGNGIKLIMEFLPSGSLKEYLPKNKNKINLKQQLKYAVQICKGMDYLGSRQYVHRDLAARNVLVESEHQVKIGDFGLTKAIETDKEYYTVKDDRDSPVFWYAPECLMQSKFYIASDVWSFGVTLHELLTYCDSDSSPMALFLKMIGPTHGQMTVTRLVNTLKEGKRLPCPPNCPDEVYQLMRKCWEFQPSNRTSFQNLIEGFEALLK
UniProt P06239: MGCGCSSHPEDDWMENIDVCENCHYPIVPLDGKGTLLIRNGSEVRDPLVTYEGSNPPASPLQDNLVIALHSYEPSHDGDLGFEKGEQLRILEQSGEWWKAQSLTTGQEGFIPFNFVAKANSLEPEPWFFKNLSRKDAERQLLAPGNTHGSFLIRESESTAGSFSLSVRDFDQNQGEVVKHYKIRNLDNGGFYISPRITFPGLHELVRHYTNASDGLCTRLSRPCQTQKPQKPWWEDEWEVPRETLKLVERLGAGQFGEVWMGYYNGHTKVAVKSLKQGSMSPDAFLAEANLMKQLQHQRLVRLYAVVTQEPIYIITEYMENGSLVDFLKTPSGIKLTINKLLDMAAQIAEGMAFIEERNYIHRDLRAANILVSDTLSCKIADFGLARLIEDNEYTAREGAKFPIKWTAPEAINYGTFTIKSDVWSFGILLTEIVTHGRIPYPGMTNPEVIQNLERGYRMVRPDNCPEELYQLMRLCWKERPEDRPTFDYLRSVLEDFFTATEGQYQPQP
UniProt P53667: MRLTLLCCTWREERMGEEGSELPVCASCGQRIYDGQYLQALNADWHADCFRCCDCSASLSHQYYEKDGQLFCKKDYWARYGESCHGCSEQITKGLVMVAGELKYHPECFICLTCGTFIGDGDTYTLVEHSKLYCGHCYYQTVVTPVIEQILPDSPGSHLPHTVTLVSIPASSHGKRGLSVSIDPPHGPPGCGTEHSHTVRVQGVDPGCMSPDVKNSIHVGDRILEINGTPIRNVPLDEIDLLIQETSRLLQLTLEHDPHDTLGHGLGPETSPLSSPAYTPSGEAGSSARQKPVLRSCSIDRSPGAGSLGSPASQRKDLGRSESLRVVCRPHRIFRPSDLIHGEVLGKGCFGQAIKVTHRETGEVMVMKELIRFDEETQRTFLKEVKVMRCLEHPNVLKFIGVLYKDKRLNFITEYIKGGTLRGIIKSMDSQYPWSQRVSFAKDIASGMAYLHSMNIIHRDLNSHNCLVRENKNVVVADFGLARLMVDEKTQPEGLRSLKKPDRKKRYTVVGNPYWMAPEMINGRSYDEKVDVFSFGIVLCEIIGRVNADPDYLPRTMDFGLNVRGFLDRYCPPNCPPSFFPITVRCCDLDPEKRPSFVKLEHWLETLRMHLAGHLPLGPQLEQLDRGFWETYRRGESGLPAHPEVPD

Experiments:
Test in all cases: number of time points (of 5) at which kinase-Nluc abundance scored as decreased, DMSO-normalised (count); higher = more persistent destabilization
Conditions in all cases: K562; 2-18 h
FLT3 = FLT3 (UniProt P36888)
FYN = FYN (UniProt P06241)
GSK3A = GSK3A (UniProt P49840)
HER2 = HER2 (UniProt P04626)
INSRR = INSRR (UniProt P14616)
IRAK3 = IRAK3 (UniProt Q9Y616)
JAK1 = JAK1 (UniProt P23458)
LCK = LCK (UniProt P06239)
LIMK1 = LIMK1 (UniProt P53667)
LIMK2 = LIMK2 (UniProt P53671)

Measured: number of time points

O=C1NC(=O)C(c2cnc3ccccn23)=C1c1cn2c3c(cc(F)cc13)CN(C(=O)N1CCCCC1)CC2 (2.5 µM)
0: FLT3 | FYN | GSK3A | HER2 | INSRR | IRAK3 | JAK1 | LCK | LIMK1 | LIMK2

Cn1ncc(Cl)c1-c1cc(C(=O)N[C@H](CN)Cc2ccc(F)c(F)c2)sc1Cl (10 µM)
2: INSRR | LIMK2
0: FLT3 | FYN | GSK3A | HER2 | IRAK3 | JAK1 | LCK
4: LIMK1

O=c1ccoc2cc(O)ccc12 [7-Hydroxy-4H-chromen-4-one] (10 µM)
0: FLT3 | FYN | GSK3A | HER2 | INSRR | IRAK3 | JAK1 | LCK | LIMK1 | LIMK2

N#C/C(=C\c1ccc2oc(=O)[nH]c2c1)C(=O)c1ccc(O)c(O)c1 (10 µM)
0: FLT3 | FYN | GSK3A | HER2 | INSRR | IRAK3 | JAK1 | LCK | LIMK1 | LIMK2

N#Cc1ccc(-c2c(-c3ncn[nH]3)sc(N3CCOCC3)c2C#N)c(F)c1 (10 µM)
1: LIMK1
0: FLT3 | FYN | GSK3A | HER2 | INSRR | IRAK3 | JAK1 | LCK | LIMK2

CC(=O)NCCc1c[nH]c2ccc(O)cc12 [N-Acetyl-5-hydroxytryptamine] (10 µM)
0: FLT3 | FYN | GSK3A | HER2 | INSRR | IRAK3 | JAK1 | LCK | LIMK1 | LIMK2

COc1ccc2c(Oc3ccc(NC(=O)c4c(C)n(CC(C)(C)O)n(-c5ccccc5)c4=O)cc3F)ccnc2c1 (2.5 µM)
0: FLT3 | FYN | GSK3A | HER2 | IRAK3 | JAK1 | LCK | LIMK1 | LIMK2
2: INSRR

O=[N+]([O-])c1ccc(Sc2cccc[n+]2[O-])c2nonc12 (2.5 µM)
0: FLT3 | FYN | GSK3A | HER2 | INSRR | IRAK3 | JAK1 | LCK | LIMK1 | LIMK2

CCN1/C(=C/C(C)=O)Sc2ccc(OC)cc21 (10 µM)
0: FLT3 | FYN | GSK3A | HER2 | IRAK3 | LCK | LIMK1 | LIMK2
1: JAK1
4: INSRR

O=C(O)c1cc(O)c2c(c1)[C@@H]([C@H]1c3cc(C(=O)O)cc(O)c3C(=O)c3c(O[C@@H]4O[C@H](CO)[C@@H](O)[C@H](O)[C@H]4O)cccc31)c1cccc(O[C@@H]3O[C@H](CO)[C@@H](O)[C@H](O)[C@H]3O)c1C2=O [Sennoside B] (2.5 µM)
0: FLT3 | FYN | GSK3A | HER2 | INSRR | IRAK3 | JAK1 | LCK | LIMK1 | LIMK2

N#C/C(=C(/N)Sc1ccc(N)cc1)c1ccccc1C(F)(F)F (10 µM)
0: FLT3 | FYN | GSK3A | HER2 | INSRR | IRAK3 | JAK1 | LCK | LIMK1 | LIMK2

C[C@@H]1O[C@@H](OC[C@H]2O[C@@H](Oc3cc(O)c4c(c3)O[C@H](c3ccc(O)cc3)CC4=O)[C@H](O)[C@@H](O)[C@@H]2O)[C@H](O)[C@H](O)[C@H]1O [Narirutin] (10 µM)
0: FLT3 | FYN | GSK3A | HER2 | INSRR | IRAK3 | JAK1 | LCK | LIMK1 | LIMK2

An excerpt from above in order of formula weight, largest number first:
C[C@@H]1O[C@@H](OC[C@H]2O[C@@H](Oc3cc(O)c4c(c3)O[C@H](c3ccc(O)cc3)CC4=O)[C@H](O)[C@@H](O)[C@@H]2O)[C@H](O)[C@H](O)[C@H]1O [Narirutin] (10 µM)
0: FLT3 | FYN | GSK3A | HER2 | INSRR | IRAK3 | JAK1 | LCK | LIMK1 | LIMK2

N#C/C(=C(/N)Sc1ccc(N)cc1)c1ccccc1C(F)(F)F (10 µM)
0: FLT3 | FYN | GSK3A | HER2 | INSRR | IRAK3 | JAK1 | LCK | LIMK1 | LIMK2

O=[N+]([O-])c1ccc(Sc2cccc[n+]2[O-])c2nonc12 (2.5 µM)
0: FLT3 | FYN | GSK3A | HER2 | INSRR | IRAK3 | JAK1 | LCK | LIMK1 | LIMK2

(next part)

CCc1ccc(C(=O)COc2ccc(CC3SC(=O)NC3=O)cc2)nc1 (stereo not given) (10 µM)
0: FLT3 | FYN | GSK3A | HER2 | INSRR | IRAK3 | JAK1 | LCK | LIMK1 | LIMK2

C=CC(=O)Nc1cccc(Oc2nc(Nc3ccc(N4CCN(C)CC4)cc3)nc3ccoc23)c1 [Poseltinib] (10 µM)
0: FLT3 | FYN | GSK3A | INSRR | IRAK3 | JAK1 | LCK | LIMK1 | LIMK2
4: HER2

CC(C)c1cc(/C=C(\C#N)C(N)=O)cc(C(C)C)c1O (10 µM)
0: FLT3 | FYN | GSK3A | HER2 | INSRR | IRAK3 | JAK1 | LCK | LIMK1 | LIMK2

COc1ccc2c(=O)c(-c3ccccc3)coc2c1 [7-Methoxyisoflavone] (10 µM)
0: FLT3 | GSK3A | HER2 | INSRR | IRAK3 | JAK1 | LCK | LIMK1 | LIMK2
3: FYN

O=C(Nc1ccc(Cl)cc1)C1CCCN(C(=O)c2cccc(-c3ccco3)c2)C1 (stereo not given) (2.5 µM)
0: FLT3 | FYN | GSK3A | HER2 | INSRR | IRAK3 | JAK1 | LCK | LIMK1 | LIMK2

[O-][n+]1cccc(-c2nc3c(Cl)cccc3cc2[C@@H](Nc2ncnc3cccnc23)C(F)(F)F)c1 [Seletalisib] (10 µM)
0: FLT3 | FYN | GSK3A | HER2 | INSRR | IRAK3 | JAK1 | LCK | LIMK1 | LIMK2

c1cc(-c2cnn3cc(-c4ccc(N5CCNCC5)cc4)cnc23)c2cccnc2c1 (2.5 µM)
1: HER2
0: FLT3 | FYN | GSK3A | INSRR | IRAK3 | JAK1 | LCK | LIMK1 | LIMK2

COc1cc2ncnc(Nc3ccc(NC(=O)c4ccccc4)cc3)c2cc1OC [Aurora kinase inhibitor-2] (2.5 µM)
0: FLT3 | FYN | GSK3A | HER2 | INSRR | IRAK3 | JAK1 | LCK | LIMK1 | LIMK2

CN1CCN(CCCNc2ncc(Cl)c(-c3cc4c(C(=O)NC5CC5)cccc4s3)n2)CC1 (10 µM)
0: FLT3 | FYN | GSK3A | HER2 | INSRR | IRAK3 | JAK1 | LCK | LIMK1 | LIMK2

COC(=O)[C@@]1(C)CC[C@]2(C(=O)O)CC[C@]3(C)C(=CC[C@@H]4[C@@]5(C)C[C@H](O)[C@H](O[C@@H]6OC[C@@H](O[C@@H]7O[C@H](CO)[C@@H](O)[C@H](O)[C@H]7O)[C@H](O)[C@H]6O)[C@@](C)(CO)[C@@H]5CC[C@]43C)[C@@H]2C1 [Esculentoside A] (10 µM)
0: FLT3 | FYN | GSK3A | HER2 | INSRR | IRAK3 | JAK1 | LCK | LIMK1 | LIMK2

O=S(=O)(c1cccc2cnccc12)N1CCNCC1 (10 µM)
0: FLT3 | FYN | GSK3A | HER2 | INSRR | IRAK3 | JAK1 | LCK | LIMK1 | LIMK2

NCCCCCCNS(=O)(=O)c1cccc2c(Cl)cccc12 [W-7 (hydrochloride)] (10 µM)
0: FLT3 | FYN | GSK3A | HER2 | INSRR | IRAK3 | JAK1 | LCK | LIMK1 | LIMK2

CC(C)(C)C(=O)N1N=CC[C@H]1c1ccccc1 (10 µM)
0: FLT3 | FYN | GSK3A | HER2 | INSRR | IRAK3 | JAK1 | LCK | LIMK1 | LIMK2

Cc1cc2ncc(-c3ccccc3)nc2cc1C (10 µM)
0: FLT3 | FYN | GSK3A | HER2 | INSRR | IRAK3 | JAK1 | LCK | LIMK1 | LIMK2

CN(C)c1nc2c(Br)c(Br)c(Br)c(Br)c2n1CC(=O)O (10 µM)
0: FLT3 | FYN | GSK3A | HER2 | INSRR | IRAK3 | JAK1 | LCK | LIMK1 | LIMK2

C=CC(=O)Nc1cccc(-n2c(=O)cc(C)c3cnc(Nc4ccc(OCCN(C)C)cc4OC)nc32)c1 (10 µM)
2: HER2
0: FLT3 | FYN | GSK3A | INSRR | IRAK3 | JAK1 | LCK | LIMK1 | LIMK2

O=C(c1ccc(Nc2nccc(-c3cc4ccccc4s3)n2)cc1)N1CCC(N2CCCC2)CC1 (2.5 µM)
0: FLT3 | FYN | GSK3A | HER2 | INSRR | IRAK3 | JAK1 | LCK | LIMK1 | LIMK2

COc1cc(N2CCC(O)CC2)ccc1Nc1cc(Nc2ccccc2S(=O)(=O)C(C)C)c2cc[nH]c2n1 (10 µM)
0: FLT3 | FYN | GSK3A | HER2 | INSRR | IRAK3 | JAK1 | LCK | LIMK1 | LIMK2

O=C(O)c1ccc(-c2c[nH]c3ncc(-c4ccccc4)cc23)cc1C1CCCC1 (2.5 µM)
3: FYN
0: FLT3 | GSK3A | HER2 | INSRR | IRAK3 | JAK1 | LCK | LIMK1 | LIMK2

O=C(Nc1cccc(-c2nncn2C2CC2)c1)c1cc(-n2cnc(C3CC3)c2)ccn1 (10 µM)
0: FLT3 | FYN | GSK3A | HER2 | INSRR | IRAK3 | JAK1 | LCK | LIMK1 | LIMK2

CCN(C)C(=O)c1ccc2c(C(=Nc3ccc(CN4CCCCC4)cc3)c3ccccc3)c(O)[nH]c2c1 (2.5 µM)
0: FLT3 | FYN | GSK3A | HER2 | INSRR | IRAK3 | JAK1 | LCK | LIMK1 | LIMK2
